Literature values in patent US12150925B2, “Buthionine sulfoximine and a metallodrug for the treatment of cancer, HIV or a rheumatic disease” (Istituto Superiore di Sanità, priority 2017, dated 2024).
At least one structure is not confirmed: it was looked up by name or label, or the drawing left a doubt.

Settings: cited from earlier work

CC(=O)OC[C@H]1O[C@@H]([S-])[C@H](OC(C)=O)[C@@H](OC(C)=O)[C@@H]1OC(C)=O.CCP(CC)CC.[Au+] [auranofin]
dose considered unsafe (can cause gold toxicity): greater than 9 mg/day
